Results taken from PubChem BioAssay AID493014 (National Center for Advancing Translational Sciences (NCATS), 2011).
This is one part of the list. Further columns of the screen follow, without active or inactive calls. Compounds called inactive in the main read-out are mostly missing here. Potencies come from curve fits of mixed quality, noted in brackets.

Test: qHTS Assay to Find Inhibitors of Chronic Active B-Cell Receptor Signaling
Details: ABC-DLBCL IkBa-CBG/CBR reporter, luminescence ratio (green luciferase fused to IkBa over red control in TMD8 lymphoma cells), 4 h
Method in brief: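 Concentration-response series (up to 46 uM) were applied to TMD8 dual-reporter cells for 4 h at 37C with doxycycline. Green/red ratio, after filter-overlap correction, defined %Activity; red signal alone was normalised to basal cells and zero luminescence.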

[1] = measured here: CBR red luminescence, cell number
[2] = measured here: IkBa-CBG green luminescence

Row | SMILES | AC50 [1] | AC50 [2]
1 | O=C(Nc1cc2nn(-c3ccccc3)nc2cc1Cl)c1ccco1 | 2.91 µM [rising, full curve, poor fit] | –
2 | CC(=O)c1cccc(Nc2c3c(nc4ccccc24)CCC3)c1 | – | 22.4 µM [falling, single point]
3 | COc1ccc(N(C(=O)CNC(=O)c2cccs2)C(C(=O)NCC2CCCO2)c2ccccc2)cc1 (stereo unspecified) | 4.47 µM [falling, full curve, poor fit] | –
4 | O=C1CSC(=Nc2ccc(O)cc2)N1 | 22.4 µM [falling, single point] | –
5 | C=CCn1c(CCC(=O)O)ccc1-c1ccc(OC)cc1 | 29.1 µM [rising, single point] | –
6 | Cc1c(C=O)c2ccccn2c1C(=O)c1ccccc1Cl | 35.5 µM [falling, single point] | –
7 | CC(C)Oc1ccc(NC(=O)CCC(=O)O)cc1 | 20.6 µM [falling, partial curve, poor fit] | –
8 | C=CCn1c(O)c(C2=c3ccccc3=NC2=O)c2ccccc21 | 35.5 µM [falling, single point] | –
9 | Fc1ccc2cnc(-c3ccccc3)c(-c3cccc(C(F)(F)F)c3)c2c1 | 4.61 µM [falling, full curve] | –
10 | COc1cccc(/C=N/NC(=O)c2[nH]nc3c2CCc2ccccc2-3)c1O | 5.17 µM [falling, full curve, poor fit] | 20.6 µM [falling, partial curve, poor fit]
11 | O=c1c2cc3c(=O)n(-c4ccccc4O)c(=O)c3cc2c(=O)n1-c1ccccc1O | 11.2 µM [falling, partial curve] | –
12 | Cc1cccc(Cc2c(C)nc3c(C(=O)N4CCN(Cc5ccc6c(c5)OCO6)CC4)cnn3c2C)c1 | 14.1 µM [falling, single point] | –
13 | Cc1ccccc1Nc1nc(N)nc(COC(=O)C(NC(=O)c2ccco2)C(C)C)n1 (stereo unspecified) | 3.55 µM [rising, full curve, poor fit] | –
14 | O=C(Nc1nc2ccccc2s1)c1ccccc1 | 1.26 µM [falling, full curve] | –
15 | O=C(c1ccc2c3c(cccc13)CC2)C1CCCN(Cc2cccnc2)C1 (stereo unspecified) | 31.6 µM [falling, single point] | –
16 | COc1ccccc1-n1c(SCC(=O)OC(C)C)nc2cccnc21 | 7.94 µM [rising, partial curve, poor fit] | –
17 | Cc1ccc(NC(=O)Nc2ccc([N+](=O)[O-])cc2)nc1 | 0.708 µM [rising, full curve, poor fit] | –
18 | COc1ccccc1NC(=O)c1ccccc1NC(=O)c1cccs1 | 35.5 µM [falling, single point] | –
19 | COC(=O)c1sccc1NC(=O)Nc1ccc(C(C)=O)cc1 | 1.26 µM [falling, full curve] | –
20 | CCOc1ccc2c(c1)OC(c1ccc(C)cc1)(C(F)(F)F)NC2=O (stereo unspecified) | 20.6 µM [rising, partial curve, poor fit] | 18.4 µM [falling, single point]
21 | COc1ccc(Nc2nc(C)cc(C)n2)cc1Cl | 10 µM [rising, partial curve, poor fit] | –

Row | SMILES | AC50 [1] | AC50 [2]
22 | CCOC(=O)/C(O)=C(\C#N)c1nc2ccccc2[nH]1 | 11.2 µM [falling, partial curve] | –
23 | COc1cc(/C=C/C(=O)O)cc(S(=O)(=O)Nc2ccccc2C(=O)NCCc2ccccc2)c1OC | 14.1 µM [falling, single point] | –
24 | O=C(COC(=O)c1ccccc1Cl)NCCC1=CCCCC1 | 0.891 µM [rising, full curve, poor fit] | –
25 | CCOCCCn1c(=S)[nH]c2cc(C(=O)NCCc3ccc(OC)c(OC)c3)ccc2c1=O | 35.5 µM [rising, single point] | –
26 | COc1cccc(NC(=O)CSc2nc3scc(C)c3c(=O)[nH]2)c1 | 3.16 µM [rising, partial curve, poor fit] | –
27 | O=C(N/N=C\c1c[nH]c2ccccc12)c1ccc(O)cc1 | 10 µM [falling, partial curve] | –
28 | O=C(Nc1cccc(C(=O)N2CCOCC2)c1)c1ncn[nH]1 | 6.51 µM [rising, single point] | –
29 | CCn1c(C)c(C(C)=O)c(N2CCCCC2)nc1=S | 25.9 µM [rising, single point] | –
30 | CN1CCN(S(=O)(=O)c2cccc(C(=O)Nc3cccc(S(N)(=O)=O)c3)c2)CC1 | 3.16 µM [rising, partial curve, poor fit] | –
31 | C[C@H](NC(=O)N1CCn2c1nc1ccccc12)C(=O)NCCc1ccccc1 | 35.5 µM [falling, single point] | –
32 | Cc1ccc(C(=O)NCC(=O)OCC(=O)Nc2ccccc2[N+](=O)[O-])cc1 | 1.64 µM [rising, full curve, poor fit] | –
33 | CC(=O)Nc1ccc(NC(=O)CSc2nc(C)nc3sc(C)c(C)c23)cc1 | 1.78 µM [rising, partial curve, poor fit] | –
34 | N=C(N)SCc1cccc2ccccc12 | 22.4 µM [falling, single point] | –
35 | Cc1ccc(C2CC2c2n[nH]c(=S)n2-c2ccc(Cl)cc2)cc1 (stereo unspecified) | 5.8 µM [rising, full curve, poor fit] | –
36 | COc1cc(-c2nc(-c3ccccc3)c(-c3ccc(F)cc3)[nH]2)cc2c1OCO2 | 16.4 µM [falling, single point] | –
37 | O=S(=O)(NCc1ccccn1)c1ccc(Cl)c(C(F)(F)F)c1 | 6.31 µM [rising, single point] | –
38 | O=C(O)COc1ccc(/C=N/NC(=O)c2cccc3ccccc23)cc1 | 8.91 µM [falling, partial curve, poor fit] | –
39 | CCn1cnc2cc(NCc3ccc(N(C)C)cc3)ccc21 | 0.112 µM [rising, full curve, poor fit] | –
40 | Clc1cccc(/C(Cc2nc3ccccc3[nH]2)=N\Nc2ccccc2)c1 | 29.1 µM [falling, single point] | –
41 | O=C(O)C1CCCCC1C(=O)N1CCN(S(=O)(=O)c2ccc(F)cc2)CC1 (stereo unspecified) | 35.5 µM [falling, single point] | –
42 | CCN(CCn1cccn1)Cc1nc(-c2ccc(C(=O)OC)cc2)no1 | 12.6 µM [falling, partial curve, poor fit] | –

Whole records as entered above. Values in the order: AC50 [1] | AC50 [2]
`Cc1ccc(NC(=O)Nc2ccc([N+](=O)[O-])cc2)nc1` is listed as 0.708 µM [rising, full curve, poor fit] | –
`Cc1ccc(C(=O)NCC(=O)OCC(=O)Nc2ccccc2[N+](=O)[O-])cc1` is listed as 1.64 µM [rising, full curve, poor fit] | –
`CCOc1ccc2c(c1)OC(c1ccc(C)cc1)(C(F)(F)F)NC2=O` (stereo unspecified) is listed as 20.6 µM [rising, partial curve, poor fit] | 18.4 µM [falling, single point]

(listing goes on)

Row | SMILES | AC50 [1] | AC50 [2]
43 | COc1ccc(OC)c(/C=N/NC(=S)NCCc2ccccc2)c1 | 12.6 µM [falling, partial curve, poor fit] | –
44 | CCC(C(=O)OCC(=O)Nc1cc(Cl)cc(Cl)c1)c1ccccc1 (stereo unspecified) | 23.1 µM [rising, single point] | –
45 | COc1ccccc1C(=O)N/C(=C\c1cn(S(=O)(=O)N(C)C)c2ccccc12)C(=O)NCCCN1CCOCC1 | 7.08 µM [falling, partial curve, poor fit] | –
46 | COC(=O)c1ccc(C(=O)OC)c(NC(=S)N2CCC(C)CC2)c1 | 4.61 µM [falling, full curve, poor fit] | –
47 | C/C(=C1/C(=O)N(c2ccc([N+](=O)[O-])cc2)N=C1c1ccccc1)N(C)C | 20 µM [falling, single point] | –
48 | CCOc1ccccc1NC(=O)N1CCC(N2CCN(Cc3ccccc3)C(=O)C2=O)CC1 | 11.2 µM [rising, partial curve, poor fit] | 12.6 µM [falling, partial curve]
49 | CCOC(=O)COc1ccccc1/C=N\NC(=O)c1cc2c(ccc3ccccc32)o1 | 7.08 µM [falling, partial curve] | –
50 | COc1ccccc1N=Nc1[nH]c2ccc(C)cc2c1O | 0.92 µM [rising, full curve, poor fit] | –
51 | CCCN1CCN(CCCNC(=O)c2ccc3c(Cl)c4c(nc3c2)CCCC4)CC1 | 25.1 µM [falling, single point] | –
52 | COc1ccc(-c2csc(Nc3ccccc3)n2)cc1 | 11.2 µM [falling, single point] | –
53 | O=C(Nc1ccc2cn[nH]c2c1)c1c(Cl)cccc1Cl | 29.1 µM [falling, single point] | –
54 | CC(C)CC(=O)NC(=S)Nc1ccc(F)cc1F | 3.55 µM [rising, single point] | –
55 | CC(=O)c1cccc(NC(=O)c2ccc(N(Cc3ccccc3C)S(C)(=O)=O)cc2)c1 | 25.9 µM [falling, single point] | –
56 | CCOc1ccc(C(=O)Nc2cc(-c3nc4ccccc4[nH]3)ccc2Cl)cc1[N+](=O)[O-] | – | 3.66 µM [falling, partial curve, poor fit]
57 | CCCCCCCCSc1nnc2[nH]c(=O)cc(N)n12 | 0.447 µM [falling, full curve, poor fit] | –
58 | COC(=O)COc1c(Cl)cc(C(c2c(C)[nH][nH]c2=O)c2c(C)[nH][nH]c2=O)cc1OC | 20 µM [falling, partial curve, poor fit] | –
59 | Cc1noc(C)c1CSCC(=O)N(CC(C)C)c1c(N)n(Cc2ccccc2)c(=O)[nH]c1=O | 29.1 µM [rising, partial curve, poor fit] | –
60 | Cc1noc(NS(=O)(=O)c2ccc(NC(=O)/C=C/c3ccc(C(C)C)cc3)cc2)c1C | 35.5 µM [falling, single point] | –
61 | CC(C)c1ccc(OCC(=O)N2CCCCCC2)c(Br)c1 | 0.631 µM [rising, full curve, poor fit] | –
62 | O=C(NCCc1ccc(Cl)cc1)c1ccc2c(c1)N(Cc1ccccc1)C(=O)CS2 | 25.1 µM [rising, single point] | –
63 | Cc1c(C(=O)NC2CCCCC2)sc2ncnc(N3CCN(c4ccccc4)CC3)c12 | 20 µM [falling, single point] | –
